Data published in paper PMC7950113.
Results are given in words; binding and its absence hold for the method and conditions named. In cells and extracts the contact can be indirect. Here binding means that the protein was enriched with, or labelled near, the bait; the list need not be complete. Sequences can lack the tags named with a protein.

By UniProt entry, the sequences of proteins in these tests, tags left out. Where a name states a change or a piece, a line headed by the entry shows the natural chain unless it says otherwise. Chains listed by the source or under a name are the forms on record and can include a tag or linker. Residues count along the entry.
FLAG-tagged thyroglobulin, WT (P01266, residues 20-2768): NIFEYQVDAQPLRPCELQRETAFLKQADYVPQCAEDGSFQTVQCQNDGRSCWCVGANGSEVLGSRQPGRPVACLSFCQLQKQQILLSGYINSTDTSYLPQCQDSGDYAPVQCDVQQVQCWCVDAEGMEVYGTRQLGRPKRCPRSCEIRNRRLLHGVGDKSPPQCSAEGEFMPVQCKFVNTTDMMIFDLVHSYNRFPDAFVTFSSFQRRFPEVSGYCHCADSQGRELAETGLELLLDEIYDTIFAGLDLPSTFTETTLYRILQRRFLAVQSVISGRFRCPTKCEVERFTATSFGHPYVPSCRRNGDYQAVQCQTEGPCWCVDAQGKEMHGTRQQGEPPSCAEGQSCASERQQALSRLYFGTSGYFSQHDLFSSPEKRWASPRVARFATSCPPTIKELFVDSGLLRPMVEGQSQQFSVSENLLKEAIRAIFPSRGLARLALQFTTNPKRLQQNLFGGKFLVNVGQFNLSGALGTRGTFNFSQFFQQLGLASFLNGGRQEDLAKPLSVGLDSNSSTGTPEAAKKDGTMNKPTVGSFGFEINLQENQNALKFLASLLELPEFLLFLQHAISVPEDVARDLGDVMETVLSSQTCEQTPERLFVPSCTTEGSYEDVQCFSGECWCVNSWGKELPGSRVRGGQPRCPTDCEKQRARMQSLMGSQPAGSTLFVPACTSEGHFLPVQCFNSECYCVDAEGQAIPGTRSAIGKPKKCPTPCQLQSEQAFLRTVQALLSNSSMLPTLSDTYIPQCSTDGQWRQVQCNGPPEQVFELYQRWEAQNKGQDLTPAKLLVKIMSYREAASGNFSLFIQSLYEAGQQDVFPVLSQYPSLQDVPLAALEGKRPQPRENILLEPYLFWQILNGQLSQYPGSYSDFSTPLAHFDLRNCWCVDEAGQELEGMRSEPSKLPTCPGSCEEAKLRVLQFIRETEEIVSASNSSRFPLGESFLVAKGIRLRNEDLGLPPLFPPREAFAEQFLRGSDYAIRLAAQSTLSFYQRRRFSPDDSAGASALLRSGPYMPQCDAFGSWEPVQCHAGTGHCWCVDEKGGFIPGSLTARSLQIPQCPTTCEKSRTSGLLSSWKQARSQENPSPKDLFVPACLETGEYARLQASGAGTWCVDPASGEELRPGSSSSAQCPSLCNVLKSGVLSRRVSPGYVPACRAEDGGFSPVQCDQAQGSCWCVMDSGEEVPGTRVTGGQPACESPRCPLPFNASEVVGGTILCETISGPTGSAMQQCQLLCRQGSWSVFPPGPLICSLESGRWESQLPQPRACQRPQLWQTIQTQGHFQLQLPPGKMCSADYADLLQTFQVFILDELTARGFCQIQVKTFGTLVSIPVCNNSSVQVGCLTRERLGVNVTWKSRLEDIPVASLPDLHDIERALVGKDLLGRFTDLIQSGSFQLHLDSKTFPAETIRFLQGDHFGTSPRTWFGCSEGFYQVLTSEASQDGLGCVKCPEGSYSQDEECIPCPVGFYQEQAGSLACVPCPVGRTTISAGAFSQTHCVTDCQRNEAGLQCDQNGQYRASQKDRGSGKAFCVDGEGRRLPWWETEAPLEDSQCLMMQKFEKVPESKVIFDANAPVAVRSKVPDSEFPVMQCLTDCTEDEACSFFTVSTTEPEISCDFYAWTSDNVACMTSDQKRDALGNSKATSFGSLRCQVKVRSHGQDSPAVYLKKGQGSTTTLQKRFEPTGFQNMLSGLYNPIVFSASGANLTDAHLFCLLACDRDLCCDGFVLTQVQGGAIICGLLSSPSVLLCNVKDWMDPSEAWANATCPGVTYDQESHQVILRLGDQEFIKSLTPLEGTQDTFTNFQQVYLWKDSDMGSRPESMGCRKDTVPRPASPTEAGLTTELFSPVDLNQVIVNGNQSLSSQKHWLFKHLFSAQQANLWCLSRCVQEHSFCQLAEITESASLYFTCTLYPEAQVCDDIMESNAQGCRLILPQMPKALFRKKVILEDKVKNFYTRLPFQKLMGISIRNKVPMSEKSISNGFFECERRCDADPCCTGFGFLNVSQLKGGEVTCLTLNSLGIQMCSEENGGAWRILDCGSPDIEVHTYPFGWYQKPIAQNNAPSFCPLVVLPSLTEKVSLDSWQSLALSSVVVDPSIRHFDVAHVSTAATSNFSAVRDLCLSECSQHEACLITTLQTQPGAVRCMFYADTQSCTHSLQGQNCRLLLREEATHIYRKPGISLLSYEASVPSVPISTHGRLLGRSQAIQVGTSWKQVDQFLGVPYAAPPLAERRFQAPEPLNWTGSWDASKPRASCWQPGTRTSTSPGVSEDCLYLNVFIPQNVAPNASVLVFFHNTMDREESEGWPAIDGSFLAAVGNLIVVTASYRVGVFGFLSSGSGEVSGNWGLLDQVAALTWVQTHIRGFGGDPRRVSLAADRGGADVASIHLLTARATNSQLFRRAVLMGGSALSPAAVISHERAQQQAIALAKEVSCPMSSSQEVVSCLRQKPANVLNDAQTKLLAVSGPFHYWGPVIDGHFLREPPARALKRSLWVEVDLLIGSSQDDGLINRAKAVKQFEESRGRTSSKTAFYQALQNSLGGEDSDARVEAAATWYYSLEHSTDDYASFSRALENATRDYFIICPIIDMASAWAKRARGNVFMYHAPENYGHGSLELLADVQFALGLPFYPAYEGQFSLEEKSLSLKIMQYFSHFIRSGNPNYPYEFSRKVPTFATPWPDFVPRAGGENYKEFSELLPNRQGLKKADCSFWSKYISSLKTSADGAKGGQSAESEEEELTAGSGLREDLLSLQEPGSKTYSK
FLAG-tagged thyroglobulin C1264R (P01266, form named): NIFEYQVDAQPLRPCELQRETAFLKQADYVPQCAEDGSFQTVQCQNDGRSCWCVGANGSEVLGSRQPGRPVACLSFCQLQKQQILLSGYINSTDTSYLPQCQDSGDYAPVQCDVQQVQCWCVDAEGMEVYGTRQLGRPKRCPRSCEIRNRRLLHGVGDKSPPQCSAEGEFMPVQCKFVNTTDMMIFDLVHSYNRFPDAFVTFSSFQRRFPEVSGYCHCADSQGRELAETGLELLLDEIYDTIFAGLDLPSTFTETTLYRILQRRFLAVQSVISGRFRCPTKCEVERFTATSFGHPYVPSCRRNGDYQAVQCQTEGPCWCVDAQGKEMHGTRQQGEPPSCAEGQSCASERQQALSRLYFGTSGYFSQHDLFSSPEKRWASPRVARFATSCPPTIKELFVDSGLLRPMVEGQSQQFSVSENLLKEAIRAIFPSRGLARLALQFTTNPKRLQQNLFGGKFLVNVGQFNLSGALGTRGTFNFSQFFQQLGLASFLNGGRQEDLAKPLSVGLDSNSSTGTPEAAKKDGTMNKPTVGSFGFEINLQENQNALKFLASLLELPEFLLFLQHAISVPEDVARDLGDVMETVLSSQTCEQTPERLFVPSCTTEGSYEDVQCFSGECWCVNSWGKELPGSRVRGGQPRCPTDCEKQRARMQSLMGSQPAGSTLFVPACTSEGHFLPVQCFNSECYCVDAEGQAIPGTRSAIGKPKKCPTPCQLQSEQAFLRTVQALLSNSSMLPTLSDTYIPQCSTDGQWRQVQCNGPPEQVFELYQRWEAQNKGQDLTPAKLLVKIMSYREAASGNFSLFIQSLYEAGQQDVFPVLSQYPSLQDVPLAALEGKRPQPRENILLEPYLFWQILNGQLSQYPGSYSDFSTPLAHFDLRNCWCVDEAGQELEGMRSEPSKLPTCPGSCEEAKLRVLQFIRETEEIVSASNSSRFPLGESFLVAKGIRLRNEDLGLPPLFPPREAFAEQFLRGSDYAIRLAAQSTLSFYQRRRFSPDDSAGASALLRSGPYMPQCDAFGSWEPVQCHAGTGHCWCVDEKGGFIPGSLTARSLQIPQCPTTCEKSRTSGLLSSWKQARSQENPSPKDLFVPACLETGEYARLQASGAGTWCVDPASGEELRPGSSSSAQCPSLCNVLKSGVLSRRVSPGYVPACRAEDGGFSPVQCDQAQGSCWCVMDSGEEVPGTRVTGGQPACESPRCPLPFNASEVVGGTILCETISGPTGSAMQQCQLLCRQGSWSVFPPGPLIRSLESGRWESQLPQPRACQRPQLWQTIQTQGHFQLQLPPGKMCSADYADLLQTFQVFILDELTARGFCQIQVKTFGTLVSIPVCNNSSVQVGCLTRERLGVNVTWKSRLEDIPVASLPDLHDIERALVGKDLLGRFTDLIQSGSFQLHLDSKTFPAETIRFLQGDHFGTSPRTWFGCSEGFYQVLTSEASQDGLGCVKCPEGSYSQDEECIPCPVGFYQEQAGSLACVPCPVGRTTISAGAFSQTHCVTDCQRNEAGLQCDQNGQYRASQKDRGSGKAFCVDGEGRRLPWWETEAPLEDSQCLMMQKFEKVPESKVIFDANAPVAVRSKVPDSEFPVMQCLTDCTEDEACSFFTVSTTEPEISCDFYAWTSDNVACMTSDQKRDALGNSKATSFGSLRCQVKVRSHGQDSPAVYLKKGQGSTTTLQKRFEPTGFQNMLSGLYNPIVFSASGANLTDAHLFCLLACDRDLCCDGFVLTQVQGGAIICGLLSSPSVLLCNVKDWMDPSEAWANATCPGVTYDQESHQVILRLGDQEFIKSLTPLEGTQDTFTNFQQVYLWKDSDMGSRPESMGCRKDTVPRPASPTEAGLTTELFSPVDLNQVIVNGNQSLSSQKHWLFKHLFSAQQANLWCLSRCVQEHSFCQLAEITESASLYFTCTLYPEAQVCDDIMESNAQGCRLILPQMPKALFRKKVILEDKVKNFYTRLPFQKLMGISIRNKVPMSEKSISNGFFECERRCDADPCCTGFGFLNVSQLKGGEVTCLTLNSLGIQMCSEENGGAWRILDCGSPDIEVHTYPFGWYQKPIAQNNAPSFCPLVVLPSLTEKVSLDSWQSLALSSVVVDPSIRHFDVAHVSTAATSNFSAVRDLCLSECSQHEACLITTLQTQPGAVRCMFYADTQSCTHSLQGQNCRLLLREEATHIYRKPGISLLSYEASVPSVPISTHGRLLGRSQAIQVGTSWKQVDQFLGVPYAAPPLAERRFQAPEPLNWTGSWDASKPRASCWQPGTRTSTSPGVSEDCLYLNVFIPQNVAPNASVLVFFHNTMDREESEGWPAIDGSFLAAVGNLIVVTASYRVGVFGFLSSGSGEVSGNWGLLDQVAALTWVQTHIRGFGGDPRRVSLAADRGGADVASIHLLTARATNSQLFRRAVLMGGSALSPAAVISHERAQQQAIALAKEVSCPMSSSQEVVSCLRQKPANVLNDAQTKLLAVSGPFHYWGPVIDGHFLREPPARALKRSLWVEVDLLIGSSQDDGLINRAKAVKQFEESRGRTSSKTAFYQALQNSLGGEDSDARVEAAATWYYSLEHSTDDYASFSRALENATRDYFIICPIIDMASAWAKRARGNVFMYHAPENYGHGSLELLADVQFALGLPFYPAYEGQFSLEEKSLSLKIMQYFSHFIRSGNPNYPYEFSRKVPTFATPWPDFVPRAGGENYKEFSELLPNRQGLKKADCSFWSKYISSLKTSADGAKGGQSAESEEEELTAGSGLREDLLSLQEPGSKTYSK

Columns and labels:
Assay in all cases: affinity purification with mass spectrometry; FLAG-Tg variants transiently expressed in HEK293 cells; cells cross-linked with 0.5 mM DSP, RIPA lysate, M2 anti-flag agarose or G1 Anti-DYKDDDDK resin overnight at 4 °C, four RIPA washes; TMT sixplex LC-MS/MS against mock AP (untagged Tg, EGFP or tdTomato)
[1] = target: FLAG-tagged thyroglobulin C1264R (human) (UniProt P01266)
[2] = target: FLAG-tagged thyroglobulin, WT (human) (UniProt P01266)
[3] = target: FLAG-tagged thyroglobulin G2341R (human) (UniProt P01266)
[4] = target: FLAG-tagged thyroglobulin A2234D (human) (UniProt P01266)
[5] = target: FLAG-tagged thyroglobulin L2284P (human) (UniProt P01266)

Measured: binding

B1: thioredoxin-related transmembrane protein 1 (protein, UniProt Q9H3N1 27-280)
chain: RRSNVRVITDENWRELLEGDWMIEFYAPWCPACQNLQPEWESFAEWGEDLEVNIAKVDVTEQPGLSGRFIITALPTIYHCKDGEFRRYQGPRTKKDFINFISDKEWKSIEPVSSWFGPGSVLMSSMSALFQLSMWIRTCHNYFIEDLGLPVWGSYTVFALATLFSGLLLGLCMIFVADCLCPSKRRRPQPYPYPSKKLLSESAQPLKKVEEEQEADEEDVSEEEAESKEGTNKDFPQNAIRQRSLGPSLATDKS
binds: [1] | [2]

B2: glucosidase II alpha subunit (protein, UniProt Q14697 29-944)
chain: ITLAVDRSNFKTCEESSFCKRQRSIRPGLSPYRALLDSLQLGPDSLTVHLIHEVTKVLLVLELQGLQKNMTRFRIDELEPRRPRYRVPDVLVADPPIARLSVSGRDENSVELTMAEGPYKIILTARPFRLDLLEDRSLLLSVNARGLLEFEHQRAPRVSQGSKDPAEGDGAQPEETPRDGDKPEETQGKAEKDEPGAWEETFKTHSDSKPYGPMSVGLDFSLPGMEHVYGIPEHADNLRLKVTEGGEPYRLYNLDVFQYELYNPMALYGSVPVLLAHNPHRDLGIFWLNAAETWVDISSNTAGKTLFGKMMDYLQGSGETPQTDVRWMSETGIIDVFLLLGPSISDVFRQYASLTGTQALPPLFSLGYHQSRWNYRDEADVLEVDQGFDDHNLPCDVIWLDIEHADGKRYFTWDPSRFPQPRTMLERLASKRRKLVAIVDPHIKVDSGYRVHEELRNLGLYVKTRDGSDYEGWCWPGSAGYPDFTNPTMRAWWANMFSYDNYEGSAPNLFVWNDMNEPSVFNGPEVTMLKDAQHYGGWEHRDVHNIYGLYVHMATADGLRQRSGGMERPFVLARAFFAGSQRFGAVWTGDNTAEWDHLKISIPMCLSLGLVGLSFCGADVGGFFKNPEPELLVRWYQMGAYQPFFRAHAHLDTGRREPWLLPSQHNDIIRDALGQRYSLLPFWYTLLYQAHREGIPVMRPLWVQYPQDVTTFNIDDQYLLGDALLVHPVSDSGAHGVQVYLPGQGEVWYDIQSYQKHHGPQTLYLPVTLSSIPVFQRGGTIVPRWMRVRRSSECMKDDPITLFVALSPQGTAQGELFLDDGHTFNYQTRQEFLLRRFSFSGNTLVSSSADPEGHFETPIWIERVVIIGAGKPAAVVLQTKGSPESRLSFQHDPETSVLVLRKPGINVASDWSIHLR
binds: all assays above

B3: oligosaccharyl transferase complex catalytic subunit B (protein, UniProt Q8TCJ2 1-826)
chain: MAEPSAPESKHKSSLNSSPWSGLMALGNSRHGHHGPGAQCAHKAAGGAAPPKPAPAGLSGGLSQPAGWQSLLSFTILFLAWLAGFSSRLFAVIRFESIIHEFDPWFNYRSTHHLASHGFYEFLNWFDERAWYPLGRIVGGTVYPGLMITAGLIHWILNTLNITVHIRDVCVFLAPTFSGLTSISTFLLTRELWNQGAGLLAACFIAIVPGYISRSVAGSFDNEGIAIFALQFTYYLWVKSVKTGSVFWTMCCCLSYFYMVSAWGGYVFIINLIPLHVFVLLLMQRYSKRVYIAYSTFYIVGLILSMQIPFVGFQPIRTSEHMAAAGVFALLQAYAFLQYLRDRLTKQEFQTLFFLGVSLAAGAVFLSVIYLTYTGYIAPWSGRFYSLWDTGYAKIHIPIIASVSEHQPTTWVSFFFDLHILVCTFPAGLWFCIKNINDERVFVALYAISAVYFAGVMVRLMLTLTPVVCMLSAIAFSNVFEHYLGDDMKRENPPVEDSSDEDDKRNQGNLYDKAGKVRKHATEQEKTEEGLGPNIKSIVTMLMLMLLMMFAVHCTWVTSNAYSSPSVVLASYNHDGTRNILDDFREAYFWLRQNTDEHARVMSWWDYGYQIAGMANRTTLVDNNTWNNSHIALVGKAMSSNETAAYKIMRTLDVDYVLVIFGGVIGYSGDDINKFLWMVRIAEGEHPKDIRESDYFTPQGEFRVDKAGSPTLLNCLMYKMSYYRFGEMQLDFRTPPGFDRTRNAEIGNKDIKFKHLEEAFTSEHWLVRIYKVKAPDNRETLDHKPRVTNIFPKQKYLSKKTTKRKRGYIKNKLVFKKGKKISKKTV
binds: all assays above

B4: DnaJ heat shock protein family member C10 (protein, UniProt Q8IXB1 33-793)
chain: DQDFYSLLGVSKTASSREIRQAFKKLALKLHPDKNPNNPNAHGDFLKINRAYEVLKDEDLRKKYDKYGEKGLEDNQGGQYESWNYYRYDFGIYDDDPEIITLERREFDAAVNSGELWFVNFYSPGCSHCHDLAPTWRDFAKEVDGLLRIGAVNCGDDRMLCRMKGVNSYPSLFIFRSGMAPVKYHGDRSKESLVSFAMQHVRSTVTELWTGNFVNSIQTAFAAGIGWLITFCSKGGDCLTSQTRLRLSGMLDGLVNVGWMDCATQDNLCKSLDITTSTTAYFPPGATLNNKEKNSILFLNSLDAKEIYLEVIHNLPDFELLSANTLEDRLAHHRWLLFFHFGKNENSNDPELKKLKTLLKNDHIQVGRFDCSSAPDICSNLYVFQPSLAVFKGQGTKEYEIHHGKKILYDILAFAKESVNSHVTTLGPQNFPANDKEPWLVDFFAPWCPPCRALLPELRRASNLLYGQLKFGTLDCTVHEGLCNMYNIQAYPTTVVFNQSNIHEYEGHHSAEQILEFIEDLMNPSVVSLTPTTFNELVTQRKHNEVWMVDFYSPWCHPCQVLMPEWKRMARTLTGLINVGSIDCQQYHSFCAQENVQRYPEIRFFPPKSNKAYHYHSYNGWNRDAYSLRIWGLGFLPQVSTDLTPQTFSEKVLQGKNHWVIDFYAPWCGPCQNFAPEFELLARMIKGKVKAGKVDCQAYAQTCQKAGIRAYPTVKFYFYERAKRNFQEEQINTRDAKAIAALISEKLETLRNQGKRNKDEL
binds: all assays above

B5: protein disulfide isomerase family A member 4 (protein, UniProt P13667 21-645)
chain: VAGAEGPDEDSSNRENAIEDEEEEEEEDDDEEEDDLEVKEENGVLVLNDANFDNFVADKDTVLLEFYAPWCGHCKQFAPEYEKIANILKDKDPPIPVAKIDATSASVLASRFDVSGYPTIKILKKGQAVDYEGSRTQEEIVAKVREVSQPDWTPPPEVTLVLTKENFDEVVNDADIILVEFYAPWCGHCKKLAPEYEKAAKELSKRSPPIPLAKVDATAETDLAKRFDVSGYPTLKIFRKGRPYDYNGPREKYGIVDYMIEQSGPPSKEILTLKQVQEFLKDGDDVIIIGVFKGESDPAYQQYQDAANNLREDYKFHHTFSTEIAKFLKVSQGQLVVMQPEKFQSKYEPRSHMMDVQGSTQDSAIKDFVLKYALPLVGHRKVSNDAKRYTRRPLVVVYYSVDFSFDYRAATQFWRSKVLEVAKDFPEYTFAIADEEDYAGEVKDLGLSESGEDVNAAILDESGKKFAMEPEEFDSDTLREFVTAFKKGKLKPVIKSQPVPKNNKGPVKVVVGKTFDSIVMDPKKDVLIEFYAPWCGHCKQLEPVYNSLAKKYKGQKGLVIAKMDATANDVPSDRYKVEGFPTIYFAPSGDKKNPVKFEGGDRDLEHLSKFIEEHATKLSRTKEEL
binds: all assays above

B6: TBC1D15 (protein, UniProt Q8TC07 1-691)
chain: MAAAGVVSGKIIYEQEGVYIHSSCGKTNDQDGLISGILRVLEKDAEVIVDWRPLDDALDSSSILYARKDSSSVVEWTQAPKERGHRGSEHLNSYEAEWDMVNTVSFKRKPHTNGDAPSHRNGKSKWSFLFSLTDLKSIKQNKEGMGWSYLVFCLKDDVVLPALHFHQGDSKLLIESLEKYVVLCESPQDKRTLLVNCQNKSLSQSFENLLDEPAYGLIQAGLLDRRKLLWAIHHWKKIKKDPYTATMIGFSKVTNYIFDSLRGSDPSTHQRPPSEMADFLSDAIPGLKINQQEEPGFEVITRIDLGERPVVQRREPVSLEEWTKNIDSEGRILNVDNMKQMIFRGGLSHALRKQAWKFLLGYFPWDSTKEERTQLQKQKTDEYFRMKLQWKSISQEQEKRNSRLRDYRSLIEKDVNRTDRTNKFYEGQDNPGLILLHDILMTYCMYDFDLGYVQGMSDLLSPLLYVMENEVDAFWCFASYMDQMHQNFEEQMQGMKTQLIQLSTLLRLLDSGFCSYLESQDSGYLYFCFRWLLIRFKREFSFLDILRLWEVMWTELPCTNFHLLLCCAILESEKQQIMEKHYGFNEILKHINELSMKIDVEDILCKAEAISLQMVKCKELPQAVCEILGLQGSEVTTPDSDVGEDENVVMTPCPTSAFQSNALPTLSASGARNDSPTQIPVSSDVCRLTPA
binds: [3]
